Results taken from article PMC10997755, “Discovery of a small-molecule inhibitor that traps Polθ on DNA and synergizes with PARP inhibitors” (Nature Communications, 2024).
For at least one entry, the source does not settle the construct or the ends of the probe. For some of these results: The comparison behind a weaker result is the experiment's own reference, which may not be listed here. Protein sequences can lack the tags named with them. For some of these results: At least one verdict rests on a figure or table, not on a statement of the authors.

How the values were obtained:
Polθ-pol (human) [1] = target: T1, Polθ-pol (human) (UniProt O75417); assay: KpnI endonuclease protection; details: crystals: 0.24 M Na citrate, 18% PEG 3350, 0.1 M Bis Tris propane pH 7.5, with 1 mM MgCl2, 1 mM ddGTP, recombinant protein, residues 1792-2590, label: 32P (5')
T1 sequence (looked up): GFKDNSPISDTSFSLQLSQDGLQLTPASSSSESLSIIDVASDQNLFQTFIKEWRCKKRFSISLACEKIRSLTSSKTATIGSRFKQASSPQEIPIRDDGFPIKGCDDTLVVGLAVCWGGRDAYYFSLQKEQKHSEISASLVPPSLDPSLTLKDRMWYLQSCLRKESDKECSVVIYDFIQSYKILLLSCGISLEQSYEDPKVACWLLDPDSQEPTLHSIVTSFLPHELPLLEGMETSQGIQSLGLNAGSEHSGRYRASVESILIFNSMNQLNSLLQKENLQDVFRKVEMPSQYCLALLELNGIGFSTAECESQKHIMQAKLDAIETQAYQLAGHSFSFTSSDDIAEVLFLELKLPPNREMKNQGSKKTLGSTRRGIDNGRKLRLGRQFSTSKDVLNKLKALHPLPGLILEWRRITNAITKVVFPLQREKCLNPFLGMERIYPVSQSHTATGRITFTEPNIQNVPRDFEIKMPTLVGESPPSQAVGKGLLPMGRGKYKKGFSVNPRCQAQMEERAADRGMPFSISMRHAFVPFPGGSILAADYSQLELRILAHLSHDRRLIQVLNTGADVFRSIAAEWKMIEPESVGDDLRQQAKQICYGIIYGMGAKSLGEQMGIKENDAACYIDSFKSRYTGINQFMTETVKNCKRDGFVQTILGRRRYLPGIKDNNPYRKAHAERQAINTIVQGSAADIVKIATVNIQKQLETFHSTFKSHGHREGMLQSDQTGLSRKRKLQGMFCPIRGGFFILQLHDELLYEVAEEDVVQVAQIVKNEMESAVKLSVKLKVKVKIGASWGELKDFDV

Polθ-pol (human) [2] = target: T1, Polθ-pol (human); assay: EcoRI endonuclease protection with unlabeled DNA trap; details: no inhibitor, readily dissociates, cleavage rate nearly as without protein, crystals: 0.24 M Na citrate, 18% PEG 3350, 0.1 M Bis Tris propane pH 7.5, with 1 mM MgCl2, 1 mM ddGTP, recombinant protein, residues 1792-2590, label: 32P (5')

CCGGGGTACCGCAG / AGTAAGAGAACGCTGCGGTACCCCGG [LM11-Kpn/LM12-Kpn primer-template]
binding result (Polθ-pol (human) [1]; RTx-152, ddCTP): binds | binding result (Polθ-pol (human) [1]; RTx-161, ddCTP): binds

CGGCGAATTCGCAG / AGTAAGAGAACGCTGCGAATTCGCCG [LM3-EcoRI/LM4-EcoRI primer-template]
binding result (Polθ-pol (human) [2]; ddCTP): binds more weakly | binding result (Polθ-pol (human) [2]; no nucleotide): binds more weakly
